Numbering of substitutions follows the chain as printed. In names and notes the source's numbering stands. No constants are given. Whether binding was seen depends on the method and setting. In cells and extracts the contact can be indirect. Binding can be weak; no strength is given. Each block holds one binder with its values, some of them ahead of it.
Biological target: RalGAPα1 region Val1133 to Pro1754
Assay: co-IP; RalA^S28N or RalA^G23V with RalGAPα1 and its regions (interaction region mapping); details in Supplementary Figs. 7 and 8A, B

binding: binds
B1: RalA^S28N (co-immunoprecipitation with RalGAPα1) (protein, UniProt P11233 1-206)
chain: MAANKPKGQNSLALHKVIMVGSGGVGKNALTLQFMYDEFVEDYEPTKADSYRKKVVLDGEEVQIDILDTAGQEDYAAIRDNYFRSGEGFLCVFSITEMESFAATADFREQILRVKEDENVPFLLVGNKSDLEDKRQVSVEEAKNRAEQWNVNYVETSAKTRANVDKVFFDLMREIRARKMEDSKEKNGKKKRKSLAKRIRERCCIL

binding: binds
B2: RalA^G23V (co-immunoprecipitation with RalGAPα1) (protein, UniProt P11233 1-206)
chain: B1 chain with G23V, N28S

Source: article PMC9314365
